# Laboratory results as given in the supplement of paper PMC7858590.
# ± gives the standard deviation of the averaged measurements. The full ranking holds about 3,800 compounds; the median of “cell shape (eccentricity) Z-score vs DMSO control” is about 1.1, and the lowest 2% start at about -4.7. The list shows a part of the results.
# Test system: human monocyte-derived macrophages (M0)
# Test: cell shape (eccentricity) Z-score vs DMSO control; higher = more elongated, M2-like morphology
# Settings: 20 µM; 24 h; macrophage state: M0 (M-CSF)
row,Structure (SMILES),cell shape (Z-score)
1,O=c1ccc2cc(O[C@@H]3O[C@H](CO)[C@@H](O)[C@H](O)[C@H]3O)c(O)cc2o1,2.48
2,COC1(C[S@@](=O)c2ccccc2)CCN(CCc2c[nH]c3ccc(F)cc23)CC1,-3.05
3,Cc1nc(N)sc1CCN,2.39
4,CC(C)(O)[C@H]1O[C@H]2CC[C@@]3(C)[C@@](O)(CC[C@H]4Cc5c([nH]c6ccccc56)[C@@]43C)C2=CC1=O,1.06
5,COc1cc2c(cc1-c1cc3cc4ccoc4cc3oc1=O)OCO2,0.00462
6,CC(=O)O[C@H]1C[C@@H](OC(C)=O)C(C)(C)C2C[C@@H](OC(C)=O)[C@]3(C)C(CC[C@@]4(C)[C@H](c5ccoc5)C(=O)[C@H]5O[C@]543)[C@]21C (stereo partly drawn),0.275
7,CC(=O)C1CCC2C3CCC4CC(C)(O)CCC4(C)C3CCC12C (stereo not drawn),2.24
8,CCCN(CCC)CCc1c[nH]c2ccc(C(N)=O)cc12,2.79
9,N#C[C@@H](OC1OC(COC2OCC(O)C(O)C2O)C(O)C(O)C1O)c1ccccc1 (stereo partly drawn),1.94 ± 0.78
10,CC[C@H]1CN2CCc3cc(OC)c(OC)cc3C2C[C@@H]1CC1NCCc2cc(OC)c(OC)cc21 (stereo partly drawn),-3.35
11,CCCN(CCC)C1CCc2cccc(O)c2C1 (stereo not drawn),5.39
12,c1cncc(C2CCCCN2)c1 (stereo not drawn),2.04
13,Cl.c1ccc(C2CNCc3ccccc32)cc1 (stereo not drawn),-1.58
14,COC1CC(OC2CCC3(C)C(CCC4C3CCC3(C)C(C5=CC(=O)OC5)C(OC(C)=O)CC43O)C2)OC(C)C1OC1OC(COC2OC(CO)C(O)C(O)C2O)C(O)C(O)C1O (stereo not drawn),-0.0893
15,Cc1ccc(C[N+](C)(C)C)o1,1.44
16,CC(C)(Cc1c[nH]c2ccc(Cl)cc12)NCCOc1ccccc1OCC1CC1,4.98
17,COc1cc([C@@H]2c3cc4c(c(O)c3C[C@H]3COC(=O)[C@@H]32)OCO4)cc(OC)c1OC,10
18,COc1cc([C@@H]2c3cc4c(cc3[C@@H](O)C3COC(=O)C32)OCO4)cc(OC)c1O (stereo partly drawn),10.5
19,C=C[C@H]1C[N@@]2CC[C@H]1C[C@H]2[C@H](O)c1ccnc2ccccc12,2.46
20,CN1CCC2(c3cccc(O)c3)Cc3nc4ccccc4cc3CC2C1 (stereo not drawn),0.791
21,CC(C)(C)c1onc(O)c1CC(N)C(=O)O (stereo not drawn),1.71
22,COc1cc2c(cc1O)C(CCc1ccc(Cl)cc1)N(C)CC2 (stereo not drawn),0.755
23,COc1cc2c(cc1OC)[C@@H]1CC(=O)[C@@H](CC(C)C)CN1CC2,2.65
24,O=[N+]([O-])c1ccc(O)c([N+](=O)[O-])c1,-0.626
25,O=C(N[C@H]1CN2CCC1CC2)c1ccc(Cl)cc1,1.37
26,C=CCN1C[C@H](C)N([C@H](c2ccc(C(=O)N(CC)CC)cc2)c2cccc(O)c2)C[C@H]1C,1.38
27,CCCCCOc1c(OC)ccc2cc(C(=O)NCc3ccc4c(c3)OCO4)c(=O)[nH]c12,0.652
28,CC(=O)C1CCC2C3CCC4C[C@H](O)CCC4(C)C3C[C@H](O)C12C (stereo partly drawn),-0.099

# Quoted from the listing:
# For cell shape (Z-score), `C=CCN1C[C@H](C)N([C@H](c2ccc(C(=O)N(CC)CC)cc2)c2cccc(O)c2)C[C@H]1C` shows 1.38
# For cell shape (Z-score), `O=[N+]([O-])c1ccc(O)c([N+](=O)[O-])c1` shows -0.626
